test: Quenching efficiency of isoniazid and amino acid: fluorescence of DBDY; format: physicochemical; conditions: PBS buffer solution pH 7.4, 25° C.; 0.25 M-DBDY and 10 mM amino acid or INH; λex = 320 nm, λem = 410 nm

Point of comparison: `CSCC[C@H](N)C(=O)O` [Methionine], “Relative fluorescence quantum yield of DBDY, Φf,rel(DBDY, i)” value 0.90. Against it:
- NCC(=O)O [Glycine] — higher, 0.96
- CC[C@H](C)[C@H](N)C(=O)O [Isoleucine] — higher, 0.96
- NNC(=O)c1ccncc1 [Isoniazid, isoniazid, reference compound] — lower, 0.25
- CC(C)C[C@H](N)C(=O)O [Leucine] — higher, 0.96
- NCCCC[C@H](N)C(=O)O [Lysine] — higher, 1.03
- N[C@@H](Cc1ccccc1)C(=O)O [Phenylalanine] — higher, 0.93
- N[C@@H](Cc1c[nH]c2ccccc12)C(=O)O [Tryptophan] — higher, 2.74
- CC(C)[C@H](N)C(=O)O [Valine] — higher, 0.99

same assay, conditions: PBS buffer solution pH 7.4, 25° C.; 0.25 M-DBDY; tyrosine at 5 mM due to low solubility; λex = 320 nm, λem = 410 nm

For `N[C@@H](Cc1ccc(O)cc1)C(=O)O` [Tyrosine], the “Relative fluorescence quantum yield of DBDY, Φf,rel(DBDY, i)” value was 1.43.

same assay, conditions: same concentrations; λex=320 nm, λem=410 nm

In the case of `CC(C)(C)OC(=O)NC(Cc1ccc(O)c(-c2cc(CC(NC(=O)OC(C)(C)C)C(=O)O)ccc2O)c1)C(=O)O` (stereo not drawn) [DBDY, N,N′-diBoc-dityrosine, reference compound], the “fluorescence intensity of DBDY relative to that of tryptophan” value is reported as “about 4,300 times”.

For `CC(C)(C)OC(=O)NC(Cc1ccc(O)c(-c2cc(CC(NC(=O)OC(C)(C)C)C(=O)O)ccc2O)c1)C(=O)O` (stereo not drawn) [DBDY, N,N′-diBoc-dityrosine, reference compound], the “fluorescence intensity of DBDY relative to that of tyrosine” value was “about 11,000 times”.

Reference: patent US20150293106A1, “DIAROMATIC AMINO ACID SUBSTRATE FOR CATHEPSIN DETECTION” (INDUSTRY-ACADEMIC COOPERATION FOUNDATION, YONSEI UNIVERSITY, priority 2012, published 2015)
